From PMC9151573
These are yes or no findings as the source states them, for the method shown. Binding seen in cells or lysates may run through a third protein. Here binding means that the protein was enriched with, or labelled near, the bait; the list need not be complete.

By UniProt entry, the sequences of proteins in these tests, tags left out.
UniProt Q00688: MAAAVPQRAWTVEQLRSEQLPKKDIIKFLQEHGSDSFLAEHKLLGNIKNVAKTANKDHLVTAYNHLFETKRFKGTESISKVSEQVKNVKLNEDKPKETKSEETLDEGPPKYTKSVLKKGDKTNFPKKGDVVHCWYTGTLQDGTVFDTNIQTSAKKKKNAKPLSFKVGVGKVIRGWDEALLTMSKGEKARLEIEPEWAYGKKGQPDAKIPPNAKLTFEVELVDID

Columns and labels:
[1] = target: p53 (endogenous) (human (endogenous in HepG2)) (UniProt P04637); experiment: affinity purification with mass spectrometry; RIME: HepG2 wt cells 24 h in growth or starvation medium, cross-linked with 1% formaldehyde, nuclei isolated, endogenous p53 precipitated with DO1 antibody, IgG2A isotype control, on-bead digest, LC-MS/MS
[2] = target: V5-p53-miniTurbo-NES (human) (UniProt P04637); experiment: proximity labelling; BioID: V5-p53-miniTurbo-NES in HepG2 p53KO cells, 2 h growth or starvation medium with 250 µM biotin; lysis in 8 M urea, streptavidin beads, LC-MS/MS; background control V5-EGFP-miniTurbo-NES

Substance | binding [1] | binding [2]
FKBP prolyl isomerase 3 (FKBP3) (from UniProt Q00688 1-224) (enzyme) |  | binds
Isocitrate dehydrogenase [NADP] cytoplasmic (IDH1) (from UniProt O75874 1-414) (enzyme) |  | binds

Next, values leading:

binding [1] | binding [2] | Substance
binds |  | PPP1CC (from UniProt P36873 1-323) (enzyme)
 | binds | Cell division control protein 42 homolog (CDC42) (from UniProt P60953 1-191)
 | binds | Pyruvate kinase (PKM) (from UniProt P14618 1-531) (enzyme)
